Data on 29 targets can be found in the supplement of paper PMC10849652.

By UniProt entry, the sequences of proteins in these tests, tags left out. Where a name states a change or a piece, a line headed by the entry shows the natural chain unless it says otherwise.
UniProt Q9BWT6: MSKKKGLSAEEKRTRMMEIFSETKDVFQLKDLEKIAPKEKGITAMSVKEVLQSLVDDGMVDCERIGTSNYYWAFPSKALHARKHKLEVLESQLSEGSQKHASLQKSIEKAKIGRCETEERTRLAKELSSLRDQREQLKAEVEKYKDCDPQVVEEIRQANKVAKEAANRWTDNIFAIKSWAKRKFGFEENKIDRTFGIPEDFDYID
UniProt Q7L4E1: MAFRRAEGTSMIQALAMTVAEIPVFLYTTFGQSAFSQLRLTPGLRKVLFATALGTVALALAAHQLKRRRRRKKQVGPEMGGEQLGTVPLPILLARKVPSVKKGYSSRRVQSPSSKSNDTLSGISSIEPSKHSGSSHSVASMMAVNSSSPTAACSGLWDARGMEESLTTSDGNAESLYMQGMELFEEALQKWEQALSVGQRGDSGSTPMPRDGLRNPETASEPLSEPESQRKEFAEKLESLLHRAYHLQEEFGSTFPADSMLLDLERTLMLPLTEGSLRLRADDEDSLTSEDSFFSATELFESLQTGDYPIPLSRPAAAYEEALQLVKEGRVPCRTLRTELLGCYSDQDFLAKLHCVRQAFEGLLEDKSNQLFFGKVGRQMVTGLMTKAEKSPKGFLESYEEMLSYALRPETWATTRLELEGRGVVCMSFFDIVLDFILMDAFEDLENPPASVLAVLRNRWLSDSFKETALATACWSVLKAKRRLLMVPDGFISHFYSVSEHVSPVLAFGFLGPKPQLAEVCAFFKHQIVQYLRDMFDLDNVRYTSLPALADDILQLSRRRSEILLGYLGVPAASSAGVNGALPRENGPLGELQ
UniProt Q8N344: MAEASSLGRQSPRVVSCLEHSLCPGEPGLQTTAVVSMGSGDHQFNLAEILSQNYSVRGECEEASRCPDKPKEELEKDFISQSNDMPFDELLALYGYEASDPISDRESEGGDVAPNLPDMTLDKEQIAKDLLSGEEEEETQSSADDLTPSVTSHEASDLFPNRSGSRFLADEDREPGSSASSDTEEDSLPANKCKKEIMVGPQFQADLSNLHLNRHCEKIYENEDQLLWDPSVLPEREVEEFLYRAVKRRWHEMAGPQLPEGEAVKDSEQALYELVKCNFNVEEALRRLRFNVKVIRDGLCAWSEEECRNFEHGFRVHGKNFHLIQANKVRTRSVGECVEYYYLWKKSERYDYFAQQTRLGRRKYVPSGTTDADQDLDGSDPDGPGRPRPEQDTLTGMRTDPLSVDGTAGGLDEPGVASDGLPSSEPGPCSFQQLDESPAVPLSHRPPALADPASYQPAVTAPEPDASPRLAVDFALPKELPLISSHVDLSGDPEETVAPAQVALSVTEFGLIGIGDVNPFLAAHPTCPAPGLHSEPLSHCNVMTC
UniProt Q8TD10: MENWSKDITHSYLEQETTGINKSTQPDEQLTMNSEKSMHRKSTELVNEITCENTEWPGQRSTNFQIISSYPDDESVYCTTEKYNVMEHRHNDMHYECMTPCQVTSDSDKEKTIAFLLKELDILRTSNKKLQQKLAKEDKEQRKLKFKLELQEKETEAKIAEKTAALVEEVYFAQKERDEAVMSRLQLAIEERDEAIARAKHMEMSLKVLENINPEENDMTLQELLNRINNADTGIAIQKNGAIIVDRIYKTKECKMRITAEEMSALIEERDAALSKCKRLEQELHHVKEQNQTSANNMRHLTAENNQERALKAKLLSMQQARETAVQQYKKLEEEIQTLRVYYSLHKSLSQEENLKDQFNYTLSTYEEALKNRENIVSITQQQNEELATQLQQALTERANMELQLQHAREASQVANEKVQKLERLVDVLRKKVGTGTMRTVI
UniProt Q96BX8: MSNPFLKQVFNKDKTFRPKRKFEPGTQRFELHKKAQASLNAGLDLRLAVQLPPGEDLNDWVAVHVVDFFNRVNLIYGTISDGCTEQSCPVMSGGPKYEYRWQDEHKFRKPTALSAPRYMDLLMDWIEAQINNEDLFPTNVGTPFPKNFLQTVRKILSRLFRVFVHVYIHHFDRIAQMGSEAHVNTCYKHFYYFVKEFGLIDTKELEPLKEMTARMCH
UniProt Q9BRT3: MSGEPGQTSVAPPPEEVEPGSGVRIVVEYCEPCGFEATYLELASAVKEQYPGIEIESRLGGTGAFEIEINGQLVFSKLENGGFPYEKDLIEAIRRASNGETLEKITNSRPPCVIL
UniProt Q8NB16: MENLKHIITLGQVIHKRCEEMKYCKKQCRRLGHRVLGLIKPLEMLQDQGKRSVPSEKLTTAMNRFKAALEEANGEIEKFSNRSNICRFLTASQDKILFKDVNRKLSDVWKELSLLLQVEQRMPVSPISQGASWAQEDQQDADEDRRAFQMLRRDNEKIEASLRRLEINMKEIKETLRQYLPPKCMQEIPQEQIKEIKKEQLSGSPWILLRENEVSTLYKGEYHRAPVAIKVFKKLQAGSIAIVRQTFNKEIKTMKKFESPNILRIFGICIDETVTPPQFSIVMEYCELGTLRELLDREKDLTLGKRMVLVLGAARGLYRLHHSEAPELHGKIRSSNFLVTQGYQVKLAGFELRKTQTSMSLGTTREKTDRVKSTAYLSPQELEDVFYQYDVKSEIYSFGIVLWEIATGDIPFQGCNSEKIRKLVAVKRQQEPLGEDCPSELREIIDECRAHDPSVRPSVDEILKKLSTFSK
UniProt Q6NTE8: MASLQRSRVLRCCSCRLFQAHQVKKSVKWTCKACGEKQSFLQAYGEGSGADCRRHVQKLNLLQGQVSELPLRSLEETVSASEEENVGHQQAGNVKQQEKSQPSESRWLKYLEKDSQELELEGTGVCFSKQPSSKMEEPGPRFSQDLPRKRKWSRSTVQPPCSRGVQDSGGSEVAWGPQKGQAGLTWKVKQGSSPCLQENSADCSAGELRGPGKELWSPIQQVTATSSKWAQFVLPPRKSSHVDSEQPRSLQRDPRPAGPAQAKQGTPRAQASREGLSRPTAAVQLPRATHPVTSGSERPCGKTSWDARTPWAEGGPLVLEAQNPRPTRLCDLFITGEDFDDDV
UniProt O95822: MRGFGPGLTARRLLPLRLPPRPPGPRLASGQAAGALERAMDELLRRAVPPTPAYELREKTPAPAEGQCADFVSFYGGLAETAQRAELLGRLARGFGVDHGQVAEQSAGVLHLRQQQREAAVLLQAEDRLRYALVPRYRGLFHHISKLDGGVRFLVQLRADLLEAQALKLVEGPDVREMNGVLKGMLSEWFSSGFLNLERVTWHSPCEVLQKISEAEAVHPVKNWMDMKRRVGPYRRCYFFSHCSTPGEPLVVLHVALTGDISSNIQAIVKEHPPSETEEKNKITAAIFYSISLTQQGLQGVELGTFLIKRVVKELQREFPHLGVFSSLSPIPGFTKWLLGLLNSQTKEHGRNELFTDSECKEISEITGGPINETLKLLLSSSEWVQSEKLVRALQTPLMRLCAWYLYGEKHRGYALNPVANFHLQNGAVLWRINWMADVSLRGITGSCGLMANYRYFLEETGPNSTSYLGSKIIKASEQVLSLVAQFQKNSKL
UniProt Q95460, whole entry, looked up: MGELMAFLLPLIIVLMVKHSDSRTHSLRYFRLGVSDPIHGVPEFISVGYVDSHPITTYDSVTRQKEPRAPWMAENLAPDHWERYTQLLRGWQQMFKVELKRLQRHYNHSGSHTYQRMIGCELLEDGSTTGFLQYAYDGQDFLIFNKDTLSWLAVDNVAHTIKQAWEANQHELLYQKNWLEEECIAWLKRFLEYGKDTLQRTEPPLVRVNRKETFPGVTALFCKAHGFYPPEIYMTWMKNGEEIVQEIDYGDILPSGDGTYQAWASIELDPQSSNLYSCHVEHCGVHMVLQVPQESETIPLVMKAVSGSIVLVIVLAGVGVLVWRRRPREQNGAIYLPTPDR
UniProt Q8NHP6: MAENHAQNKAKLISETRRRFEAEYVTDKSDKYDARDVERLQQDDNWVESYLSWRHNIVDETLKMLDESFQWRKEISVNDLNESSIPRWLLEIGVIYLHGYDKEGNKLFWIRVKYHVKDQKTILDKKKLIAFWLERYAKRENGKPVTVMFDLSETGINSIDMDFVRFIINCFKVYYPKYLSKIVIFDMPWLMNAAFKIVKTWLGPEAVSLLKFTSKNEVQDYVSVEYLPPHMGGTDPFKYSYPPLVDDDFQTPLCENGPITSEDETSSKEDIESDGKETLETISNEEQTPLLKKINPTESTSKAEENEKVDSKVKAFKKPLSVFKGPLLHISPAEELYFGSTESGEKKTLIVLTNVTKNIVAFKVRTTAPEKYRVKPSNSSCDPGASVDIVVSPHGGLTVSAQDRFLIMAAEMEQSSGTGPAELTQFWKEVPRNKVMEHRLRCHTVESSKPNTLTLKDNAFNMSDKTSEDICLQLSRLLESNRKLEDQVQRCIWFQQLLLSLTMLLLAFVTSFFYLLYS
UniProt Q9UBG0: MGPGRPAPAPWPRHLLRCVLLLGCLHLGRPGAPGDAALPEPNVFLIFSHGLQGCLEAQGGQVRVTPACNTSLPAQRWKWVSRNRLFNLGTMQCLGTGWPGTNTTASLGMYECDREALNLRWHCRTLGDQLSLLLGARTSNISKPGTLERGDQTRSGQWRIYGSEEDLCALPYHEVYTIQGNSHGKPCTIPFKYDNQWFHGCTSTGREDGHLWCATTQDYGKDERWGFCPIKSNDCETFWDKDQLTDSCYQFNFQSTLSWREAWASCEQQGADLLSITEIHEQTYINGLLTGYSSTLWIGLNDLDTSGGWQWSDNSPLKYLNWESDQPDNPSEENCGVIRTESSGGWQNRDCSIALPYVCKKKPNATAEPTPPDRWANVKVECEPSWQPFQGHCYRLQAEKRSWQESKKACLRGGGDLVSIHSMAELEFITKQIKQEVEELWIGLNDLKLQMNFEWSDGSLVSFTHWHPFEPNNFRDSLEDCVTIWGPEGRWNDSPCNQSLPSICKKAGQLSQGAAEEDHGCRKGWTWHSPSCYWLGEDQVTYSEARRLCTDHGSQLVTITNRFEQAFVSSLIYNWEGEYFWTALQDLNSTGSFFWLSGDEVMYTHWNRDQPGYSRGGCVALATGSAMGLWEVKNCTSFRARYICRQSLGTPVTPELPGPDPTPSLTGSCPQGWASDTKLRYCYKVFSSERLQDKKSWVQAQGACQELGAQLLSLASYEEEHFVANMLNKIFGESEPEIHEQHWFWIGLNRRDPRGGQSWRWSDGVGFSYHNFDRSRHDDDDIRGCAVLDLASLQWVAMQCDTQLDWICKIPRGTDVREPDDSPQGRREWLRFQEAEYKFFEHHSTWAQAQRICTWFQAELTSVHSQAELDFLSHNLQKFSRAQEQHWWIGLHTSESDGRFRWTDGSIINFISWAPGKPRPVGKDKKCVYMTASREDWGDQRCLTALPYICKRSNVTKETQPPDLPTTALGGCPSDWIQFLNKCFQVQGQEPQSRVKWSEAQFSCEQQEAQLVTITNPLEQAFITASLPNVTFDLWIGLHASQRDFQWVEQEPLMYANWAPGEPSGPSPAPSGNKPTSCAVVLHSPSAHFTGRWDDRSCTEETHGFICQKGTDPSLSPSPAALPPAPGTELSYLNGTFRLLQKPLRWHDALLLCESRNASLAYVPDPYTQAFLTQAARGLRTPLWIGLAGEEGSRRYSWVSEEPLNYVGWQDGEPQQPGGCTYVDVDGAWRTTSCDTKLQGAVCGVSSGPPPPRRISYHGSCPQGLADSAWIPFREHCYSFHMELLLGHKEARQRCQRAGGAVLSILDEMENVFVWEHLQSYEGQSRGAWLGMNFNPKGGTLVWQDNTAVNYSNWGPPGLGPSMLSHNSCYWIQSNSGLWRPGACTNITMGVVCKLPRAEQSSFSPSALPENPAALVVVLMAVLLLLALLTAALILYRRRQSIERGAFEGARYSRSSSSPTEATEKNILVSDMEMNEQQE
UniProt P39210: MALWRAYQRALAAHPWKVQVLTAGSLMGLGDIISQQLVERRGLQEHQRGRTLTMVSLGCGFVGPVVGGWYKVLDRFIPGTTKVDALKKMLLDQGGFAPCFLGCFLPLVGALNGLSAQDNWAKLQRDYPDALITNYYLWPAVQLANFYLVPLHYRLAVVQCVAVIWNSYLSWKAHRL
UniProt Q03111: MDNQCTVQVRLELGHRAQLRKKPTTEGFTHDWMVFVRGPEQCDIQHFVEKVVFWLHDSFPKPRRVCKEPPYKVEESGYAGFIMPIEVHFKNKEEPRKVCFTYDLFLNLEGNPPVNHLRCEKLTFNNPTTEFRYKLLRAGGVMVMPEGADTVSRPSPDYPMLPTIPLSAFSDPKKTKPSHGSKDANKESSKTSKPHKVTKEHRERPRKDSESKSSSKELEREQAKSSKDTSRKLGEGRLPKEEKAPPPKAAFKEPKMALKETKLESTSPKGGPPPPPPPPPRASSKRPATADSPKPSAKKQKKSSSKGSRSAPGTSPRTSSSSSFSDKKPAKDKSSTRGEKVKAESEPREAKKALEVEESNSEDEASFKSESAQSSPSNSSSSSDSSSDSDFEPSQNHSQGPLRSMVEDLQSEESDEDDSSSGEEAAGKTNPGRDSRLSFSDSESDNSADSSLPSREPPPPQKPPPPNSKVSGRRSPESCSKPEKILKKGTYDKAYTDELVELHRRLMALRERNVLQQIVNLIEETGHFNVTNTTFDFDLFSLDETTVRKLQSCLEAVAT

This is one part of the list.

What all share (experiment): log2 fold change, soluble protein after heating vs DMSO (PISA); higher = thermal stabilisation; K562 lysate, 10 uM; active = over 0.2 and 3.5 SD of the protein, either way, in both replicates (recomputed)
Compound in assay [1]: NCC(=O)Nc1ccc(-n2nc(C(F)(F)F)cc2-c2ccc3c(ccc4ccccc43)c2)cc1
The gist of the method: (§1)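 Pellets of K562 cells were dounce-homogenised in PBS pH 7.4 with 1 mM MgCl2, and the crude extract was held at 1 mg/mL protein for a 30 min treatment with 10 μM compound. Aliquots were heated for 3 min over 48°C-58°C and pooled before NP-40 was added to 0.5% at 4°C. The supernatant from 21,000xg for 90 min was quantified by TMTpro 16plex LC-MS/MS with channel sums equalised. Values are reported from duplicates as log-two fold change in thermal stability relative to solvent controls.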

Compound in the next assay: O=C(CCCCCCC(=O)Nc1ccccc1)NO [vorinostat]
The gist of the method: as §1

Compound in a further assay: O=C(O)c1ccc2c(c1)nc(Nc1cccc(Cl)c1)c1ccncc12 [silmitasertib]
The method in brief: as §1

Compound in assay [2]: O=C1NC(=O)C(c2cnc3ccccn23)=C1c1cn2c3c(cc(F)cc13)CN(C(=O)N1CCCCC1)CC2
The gist of the method:
as §1

Compound in another assay: c1cn2cc(-c3ccc4cn[nH]c4c3)nc(Nc3ccc(N4CCOCC4)cc3)c2n1 [entospletinib]
The method in brief:
as §1

MICAL3 (UniProt Q7RTP6): the log2 fold change in assay [1] was inactive: 0.023; with vorinostat, inactive: 0.001; in the assay with silmitasertib it was inactive: -0.006; in assay [2], inactive: -0.019; with entospletinib, inactive: -0.02.
As to MIIP (UniProt Q5JXC2), the log2 fold change is inactive: 0.258 with vorinostat, inactive: -0.212 with silmitasertib and inactive: -0.011 in assay [2].
On to MRPL20 (UniProt Q9BYC9), for which the log2 fold change in assay [1] is inactive: 0.012; in the assay with vorinostat, inactive: 0.065; with silmitasertib, inactive: -0.066; in assay [2], inactive: 0.046; with entospletinib, inactive: 0.019.
Regarding MND1 (UniProt Q9BWT6), the log2 fold change is inactive: -0.009 in assay [1]; inactive: -0.013 with vorinostat; inactive: 0.034 in the assay with silmitasertib; inactive: -0.023 in assay [2]; inactive: -0.006 with entospletinib.
Consider MIGA2 (UniProt Q7L4E1), for which the log2 fold change was inactive: 0.146 in the assay with vorinostat, inactive: 0.033 with silmitasertib and inactive: -0.078 with entospletinib.
With MIER2 (UniProt Q8N344), the log2 fold change in assay [1] is inactive: -0.082; in the assay with vorinostat, inactive: -0.109; in the assay with silmitasertib, inactive: 0.041; with entospletinib, inactive: 0.171.
As for MIPOL1 (UniProt Q8TD10), the log2 fold change was inactive: -0.363 with vorinostat, inactive: 0.177 with silmitasertib, inactive: 0.358 in assay [2] and inactive: -0.081 with entospletinib.
Take MRAS (UniProt O14807): the log2 fold change in assay [1] is inactive: -0.096; in the assay with vorinostat it was inactive: 0.234; with silmitasertib it was inactive: 0; in assay [2] it was inactive: 0.04; in the assay with entospletinib it was inactive: -0.067.
Taken in the same sequence, the figures for MOB3A (UniProt Q96BX8) were inactive: 0.009, inactive: 0.07, inactive: -0.016, inactive: -0.013 and inactive: -0.046.
The matching figures for MRGBP (UniProt Q9NV56): inactive: -0.01, inactive: -0.021, inactive: 0.014, inactive: -0.014 and inactive: 0.08.
Taken in the same sequence, the figures for MIEN1 (UniProt Q9BRT3) were inactive: -0.148, inactive: 0.124, inactive: 0.009, inactive: 0.05 and inactive: -0.028.
Turning to MLKL (UniProt Q8NB16), the log2 fold change is inactive: -0.15 with vorinostat, inactive: -0.041 in the assay with silmitasertib, inactive: 0.067 in assay [2] and inactive: -0.103 with entospletinib.
Regarding MRPL11 (UniProt Q9Y3B7), the log2 fold change in assay [1] is inactive: 0.016; with vorinostat it was inactive: -0.165; with silmitasertib, inactive: 0.055; in assay [2] it was inactive: 0; with entospletinib, inactive: 0.049.
MRNIP (UniProt Q6NTE8): the log2 fold change was inactive: -0.166 with vorinostat, inactive: -0.042 in the assay with silmitasertib and inactive: 0.069 in assay [2].
Regarding MRPL18 (UniProt Q9H0U6), the log2 fold change was inactive: -0.007 in assay [1], inactive: 0.01 in assay [2] and inactive: 0.031 in the assay with entospletinib.
Turning to MLYCD (UniProt O95822), the log2 fold change with vorinostat is inactive: -0.101; with silmitasertib, inactive: 0.147; in assay [2] it was inactive: -0.072; with entospletinib, inactive: -0.031.
Take MR1 (UniProt Q95460): the log2 fold change in assay [1] was inactive: -0.084; in the assay with vorinostat, inactive: 0.092; with silmitasertib it was inactive: -0.048; in the assay with entospletinib, inactive: 0.01.
As for MKKS (UniProt Q9NPJ1), the values for the log2 fold change (in assay [1]; with entospletinib) were inactive: -0.036 and inactive: 0.124, respectively.
For the target MIDEAS, A0A1C7CYX1, the figures for the log2 fold change (in the assay with vorinostat; in the assay with silmitasertib; in assay [2]) were inactive: -0.211, inactive: 0.054 and inactive: -0.029, respectively.
Consider MOSPD2 (UniProt Q8NHP6), for which the log2 fold change in assay [1] was active: -0.364; with vorinostat, inactive: 0.039; in the assay with silmitasertib, inactive: 0.071; in assay [2], inactive: -0.02; in the assay with entospletinib, inactive: -0.074.
Regarding MMGT1 (UniProt Q8N4V1), the log2 fold change with vorinostat was inactive: 0.126; in the assay with silmitasertib it was inactive: -0.003; in assay [2] it was inactive: -0.01; with entospletinib, inactive: -0.038.
As for MRPL22 (UniProt Q9NWU5), the log2 fold change with vorinostat is active: -0.687; with silmitasertib, inactive: 0.001; in assay [2], inactive: -0.007.
Consider MROH1 (UniProt Q8NDA8), for which the log2 fold change in assay [2] is inactive: -0.034; with entospletinib it was inactive: -0.153.
For MRC2 (UniProt Q9UBG0), the log2 fold change with vorinostat is inactive: 0.346; in the assay with silmitasertib, inactive: -0.051; in assay [2], inactive: -0.171; in the assay with entospletinib, inactive: -0.055.
On to MKKS (UniProt Q9HB66), for which the log2 fold change in assay [1] was inactive: -0.075; in the assay with vorinostat, inactive: 0.164; with silmitasertib, inactive: -0.008; with entospletinib, inactive: -0.008.
For MPG (UniProt P29372), the log2 fold change is inactive: 0.043 in assay [1]; inactive: -0.048 with vorinostat; inactive: 0.05 with silmitasertib; inactive: -0.021 in assay [2]; inactive: -0.035 with entospletinib.
Taken in the same sequence, the figures for MPV17 (UniProt P39210) were inactive: -0.168, inactive: 0.001, inactive: -0.044, inactive: 0.085 and inactive: 0.112.
Regarding MRE11 isoform 3 (UniProt P49959), the log2 fold change was inactive: 0.009 in assay [1]; inactive: 0.027 in the assay with vorinostat; inactive: 0 in the assay with silmitasertib; inactive: 0.014 in assay [2]; inactive: -0.013 in the assay with entospletinib.
For the target MLLT1 (UniProt Q03111), the log2 fold change in assay [1] was inactive: 0.043; with vorinostat, inactive: 0.037; in the assay with silmitasertib it was inactive: -0.091; in assay [2] it was inactive: 0.015; with entospletinib, inactive: 0.022.
